Source: publication PMC11727331
Results are given in words; binding and its absence hold for the method and conditions named. In cells and extracts the contact can be indirect. Some binding calls cover weakened binding; strength is not graded here.

Protein sequences, listed by entry. Tags and fused reporters are not part of them.
UniProt P08047: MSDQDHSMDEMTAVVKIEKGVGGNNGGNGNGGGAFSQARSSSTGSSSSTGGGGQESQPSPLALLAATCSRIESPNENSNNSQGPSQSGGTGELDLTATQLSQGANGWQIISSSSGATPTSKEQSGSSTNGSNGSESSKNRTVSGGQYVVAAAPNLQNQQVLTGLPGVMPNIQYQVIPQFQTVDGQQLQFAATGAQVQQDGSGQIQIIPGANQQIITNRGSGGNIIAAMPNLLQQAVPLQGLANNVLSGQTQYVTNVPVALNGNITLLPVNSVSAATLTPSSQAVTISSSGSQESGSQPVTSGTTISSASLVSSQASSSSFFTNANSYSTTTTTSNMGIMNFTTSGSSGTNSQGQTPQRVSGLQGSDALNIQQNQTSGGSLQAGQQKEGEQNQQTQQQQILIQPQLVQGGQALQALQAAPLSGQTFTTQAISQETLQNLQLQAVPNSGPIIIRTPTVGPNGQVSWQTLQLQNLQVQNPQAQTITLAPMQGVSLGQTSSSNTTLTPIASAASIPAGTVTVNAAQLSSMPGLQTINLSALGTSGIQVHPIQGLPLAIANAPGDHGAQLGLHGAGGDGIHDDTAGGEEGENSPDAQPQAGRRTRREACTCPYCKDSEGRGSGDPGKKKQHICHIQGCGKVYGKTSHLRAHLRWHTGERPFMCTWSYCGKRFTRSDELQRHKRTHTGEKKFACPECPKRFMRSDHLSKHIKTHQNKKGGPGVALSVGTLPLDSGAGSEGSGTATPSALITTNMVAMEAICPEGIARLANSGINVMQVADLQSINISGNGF
UniProt Q9UBN7: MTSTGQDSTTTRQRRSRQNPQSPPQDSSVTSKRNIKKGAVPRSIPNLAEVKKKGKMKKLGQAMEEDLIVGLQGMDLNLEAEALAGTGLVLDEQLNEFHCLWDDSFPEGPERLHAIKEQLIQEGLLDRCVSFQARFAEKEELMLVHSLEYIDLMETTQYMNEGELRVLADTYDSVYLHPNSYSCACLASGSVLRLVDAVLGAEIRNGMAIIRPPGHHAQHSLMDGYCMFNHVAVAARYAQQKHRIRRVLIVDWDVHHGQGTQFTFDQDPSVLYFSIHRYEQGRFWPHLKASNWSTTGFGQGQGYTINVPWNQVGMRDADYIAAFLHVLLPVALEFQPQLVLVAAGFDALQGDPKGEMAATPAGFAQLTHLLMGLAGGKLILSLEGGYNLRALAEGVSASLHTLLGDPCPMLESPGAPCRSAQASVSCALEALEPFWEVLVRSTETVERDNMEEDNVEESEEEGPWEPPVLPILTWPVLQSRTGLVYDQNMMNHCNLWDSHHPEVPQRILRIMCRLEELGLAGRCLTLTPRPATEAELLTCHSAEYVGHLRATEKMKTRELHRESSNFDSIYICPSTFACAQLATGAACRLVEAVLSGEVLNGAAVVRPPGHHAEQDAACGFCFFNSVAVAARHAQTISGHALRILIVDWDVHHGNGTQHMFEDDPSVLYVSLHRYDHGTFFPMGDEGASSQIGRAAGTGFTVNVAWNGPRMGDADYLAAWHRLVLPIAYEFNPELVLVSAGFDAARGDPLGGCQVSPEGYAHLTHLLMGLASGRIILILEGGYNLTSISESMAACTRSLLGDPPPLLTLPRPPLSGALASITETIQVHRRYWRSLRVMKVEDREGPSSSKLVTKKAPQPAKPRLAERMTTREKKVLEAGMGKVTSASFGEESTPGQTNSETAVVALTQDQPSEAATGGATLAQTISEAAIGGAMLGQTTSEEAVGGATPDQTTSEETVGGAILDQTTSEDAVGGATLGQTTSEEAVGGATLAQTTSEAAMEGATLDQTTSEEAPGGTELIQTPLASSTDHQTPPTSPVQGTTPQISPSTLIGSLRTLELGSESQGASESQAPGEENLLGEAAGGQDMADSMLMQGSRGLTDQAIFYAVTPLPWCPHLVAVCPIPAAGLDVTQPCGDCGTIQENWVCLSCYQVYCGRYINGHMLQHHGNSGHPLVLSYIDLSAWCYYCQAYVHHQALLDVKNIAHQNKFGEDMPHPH

Target: SP1 (human (endogenous in FaDu and HK-1)) (UniProt P08047)
Assay: co-IP; 800 ug lysate of FaDu and HK-1 cells (50 mM Tris pH 7.6, 150 mM NaCl, 0.5% Triton-X100, 0.1% Nonidet P-40) incubated with 5 ug anti-SP1 or normal rabbit IgG overnight at 4 C, Dynabeads Protein G, immunoblot

- binding: binds
Substance: HDAC6 (from UniProt Q9UBN7 1-1215) (enzyme)
